Measurements as given in PMC11638158.
These are yes or no findings as the source states them, for the method shown. Binding seen in cells or lysates may run through a third protein. Some entries that bind do so weakly or less than the wild type. Tags and fused reporters may be left off the sequences shown.

Molecular target: T1, RYBP-FLAG (RING1 and YY1 binding protein) (UniProt Q8CCI5)
T1 sequence: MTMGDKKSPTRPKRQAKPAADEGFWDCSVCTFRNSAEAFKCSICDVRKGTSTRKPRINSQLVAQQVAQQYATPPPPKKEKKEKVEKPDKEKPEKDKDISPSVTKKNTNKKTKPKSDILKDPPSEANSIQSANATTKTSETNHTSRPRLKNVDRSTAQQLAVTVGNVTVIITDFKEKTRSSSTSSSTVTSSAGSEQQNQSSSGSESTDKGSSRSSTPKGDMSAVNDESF
Experiment: co-IP; HEK293 cells co-transfected with prk7-Brachyury and pcDNA3.1-Rybp-FLAG; lysate in EB buffer (50 mM HEPES, 150 mM NaCl, 0.5 mM MgCl2, 0.1% NP40, 5% glycerol, 0.5 mM DTT, MG132, benzonase); anti-FLAG-M2 magnetic beads, 4°C, 90 min; elution with 3xFLAG peptide; blot with anti-BRACHYURY and anti-FLAG

B1: BRACHYURY (protein, UniProt P20293 1-436)
chain: MSSPGTESAGKSLQYRVDHLLSAVESELQAGSEKGDPTERELRVGLEESELWLRFKELTNEMIVTKNGRRMFPVLKVNVSGLDPNAMYSFLLDFVTADNHRWKYVNGEWVPGGKPEPQAPSCVYIHPDSPNFGAHWMKAPVSFSKVKLTNKLNGGGQIMLNSLHKYEPRIHIVRVGGPQRMITSHCFPETQFIAVTAYQNEEITALKIKYNPFAKAFLDAKERNDHKDVMEEPGDCQQPGYSQWGWLVPGAGTLCPPASSHPQFGGSLSLPSTHGCERYPALRNHRSSPYPSPYAHRNSSPTYADNSSACLSMLQSHDNWSSLGVPGHTSMLPVSHNASPPTGSSQYPSLWSVSNGTITPGSQTAGVSNGLGAQFFRGSPAHYTPLTHTVSAATSSSSGSPMYEGAATVTDISDSQYDTAQSLLIASWTPVSPPSM
For B1, the binding was “binds”.
